# Reference: patent US20100322938A1 (COMPUGEN, published 2010)
# Chains of the proteins cited; added tags and fusions are not shown. Lines headed by an entry give the natural chain unless they say otherwise; changes in a name come on top.
# UniProt P10909: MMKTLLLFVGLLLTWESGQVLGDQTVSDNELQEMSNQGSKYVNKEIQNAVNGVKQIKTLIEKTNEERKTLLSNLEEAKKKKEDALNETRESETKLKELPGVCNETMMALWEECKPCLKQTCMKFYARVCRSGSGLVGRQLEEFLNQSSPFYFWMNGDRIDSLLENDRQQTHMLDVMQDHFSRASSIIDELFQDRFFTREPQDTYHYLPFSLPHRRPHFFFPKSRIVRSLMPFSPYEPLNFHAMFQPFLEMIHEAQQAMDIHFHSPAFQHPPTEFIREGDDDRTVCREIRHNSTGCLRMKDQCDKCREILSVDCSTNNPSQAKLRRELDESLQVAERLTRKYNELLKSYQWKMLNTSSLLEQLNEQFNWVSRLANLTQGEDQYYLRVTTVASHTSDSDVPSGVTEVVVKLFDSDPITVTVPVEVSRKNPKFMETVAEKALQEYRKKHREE
# Results are given in words; binding and its absence hold for the method and conditions named. Some results given as binding are weak or reduced against the parent protein; the word gives no strength.
# Target: recombinant human clusterin (Biovendor, cat no: RD172034100) (human) (UniProt P10909)
# Test: SPR (BIAcore), clusterin immobilized on CM5 chip (2000 RU), CGEN-CL1 injected at 312-5000 nM
binder,measurement,value
FYFWMNGDRIDSLLENDRQQT (acetylated at its N-terminus; amidated at its C-terminus) [CGEN-CL1 peptide … [SEQ ID NO: 1]],binding,binds
